# Measurements published in PubChem BioAssay AID624404 (Broad Institute, 2012).
# Screen size: about 1,800 compounds; about 710 (39%) were called active. Inconclusive means that the source gave no clear call. Such entries were picked first, then a sample of the others.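 The calls were made as follows: active = luciferase signal rise whose fitted curve crosses a set activity limit at or below the top valid tested dose; inconclusive = flat fit with 30 to 70% rise, or poor fit; inactive = signal falling, flat within 30%, or crossing above top dose.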
# Assay: luciferase activators in glycosylation-insensitive reporter cells, dose response, counter-screen for N-linked glycosylation inhibitor project, D54 LucT cells, luminescence, cherry pick (AID 624404);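 also: 0% = median neutral control signal and 100% = twice that signal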
# Conditions: D54 LucT luciferase reporter counterscreen, 24 h; at 19.5 µM (top of the series) unless noted
row,Compound,activity increase (luciferase signal)
1,CCN(c1cccc(C)c1)S(=O)(=O)c1ccc(-c2cc(C)no2)s1,inconclusive: 23.1%
2,C=CCN(CC=C)S(=O)(=O)c1ccc(C(=O)Nc2nc3c(s2)CCc2ccccc2-3)cc1,inconclusive: 48.8% [at 0.3 µM]
3,CC1(C(=O)NCc2ccccc2)Cc2c(-c3cccc(C(F)(F)F)c3)ccnc2O1 (centres undefined),inconclusive: 50.2%
4,O=C(O)CCC/C=C\C[C@@H]1[C@@H](/C=C/[C@@H](O)COc2cccc(Cl)c2)[C@H](O)C[C@@H]1O,inactive: 103%
5,O=c1[nH]c(=O)n([C@H]2C[C@H](O)[C@@H](CO)O2)cc1Br,inconclusive: 59.3%
6,Cc1cc(C)cc(NC(=O)CCn2c(=O)c3cccn3c3ccccc32)c1,inconclusive: 13.6%
7,COc1ccc(-c2nc(NCCCN(C)C)c3ccccc3n2)cc1,inconclusive: 82.7%
8,Cc1cccn2c(=O)c3cc(C(=O)NC4CCCC4)c(=N)n(CC4CCCO4)c3nc12 (centres undefined),inactive: -16.3%
9,C[C@H]1CN([C@@H](C)CO)C(=O)Cc2cc(NC(=O)CCC(F)(F)F)ccc2O[C@H]1CN(C)S(=O)(=O)c1ccc(F)cc1,inconclusive: 49.1%
10,CCOC(=O)N1CCN(C(=O)c2cccc(N3C(=O)NC4CC3(C)Oc3ccc(Cl)cc34)c2)CC1 (centres undefined),inconclusive: 84.4%
11,NS(=O)(=O)c1ccc(N=Nc2c(O)[nH]c3ccc(Br)cc23)cc1,inconclusive: 2.91%
12,O=C(N/N=C/c1cccc(Br)c1)c1ccc(N2CCCC2=O)cc1,inactive: 60.1%
13,COc1ccc(C(C)(O)c2nc(-c3ccc(F)cc3OC)cs2)cc1 (centres undefined),inactive: 35.5%
14,CCNc1ccc(C(=O)OCC)cc1NC(=O)c1cccc(N(C)C)c1,inconclusive: 125%
15,O=C(CNc1cccc2ccccc12)N/N=C/C(Br)=C/c1ccccc1,inactive: 33.3%
16,Cc1cc(C)nc(SC2=CS(=O)(=O)c3ccccc32)n1,inconclusive: 31.7%
17,CCOc1ccccc1C1CC(=O)Nc2cc3c(cc21)OCCO3 (centres undefined),inactive: -7.85%
18,CC(/C=N/NC(=O)c1cc(-c2ccccc2)nc2ccccc12)=C\c1ccco1,inconclusive: 31.1%
19,C=CCn1c(SCc2c(C)noc2C)nc2ccccc2c1=O,inconclusive: 25.6%
20,O=C1OC(c2ccc(F)cc2)CC1CN1CCOCC1 (centres undefined),inconclusive: 25.8%
21,COc1ccc(CN2C(=O)C(C)Nc3ncnc(N4CCc5ccccc5C4)c32)cc1 (centres undefined),inactive: 14.3%
22,Cc1cccc2cc(/C=C/C(=O)c3ccco3)c(Cl)nc12,inconclusive: 57%
23,Cc1ccc(OCC(=O)Nc2ccc(NC(=O)c3cccs3)cc2)c(C)c1,inconclusive: 46.8%
24,COc1ccc(Cn2c(=O)c3[nH]cnc3n(-c3ccccc3C)c2=O)cc1,inactive: 14.1%
25,CC(=O)N1N=C(c2ccc(NS(=O)(=O)c3ccccc3)cc2)CC1c1ccco1 (centres undefined),inconclusive: 25.7%
26,CN(C)CCc1cc2c(c3c1ccc1ccccc13)OCO2,inactive: -9.59%
27,COc1cc(-c2cc(OC)c(O)c(OC)c2)cc(OC)c1O,inconclusive: 38.1%

# Filtered by structure: those above with a CF3 group
row,Compound,activity increase (luciferase signal)
3,CC1(C(=O)NCc2ccccc2)Cc2c(-c3cccc(C(F)(F)F)c3)ccnc2O1 (centres undefined),inconclusive: 50.2%
9,C[C@H]1CN([C@@H](C)CO)C(=O)Cc2cc(NC(=O)CCC(F)(F)F)ccc2O[C@H]1CN(C)S(=O)(=O)c1ccc(F)cc1,inconclusive: 49.1%

# More compounds:

row,Compound,activity increase (luciferase signal)
1,Cn1cc(/C=N/n2cnc3scc(-c4ccc(Cl)cc4)c3c2=O)c2ccccc21,inactive: -4.96%
2,COC(=O)c1cc(=O)n(-c2ccccc2)c(=Nc2ccccc2)s1,inconclusive: 15.6%
3,O=C(CSc1nc2nc(-c3cccs3)cc(C(F)(F)F)c2c(=O)[nH]1)C(F)(F)F,inconclusive: 54.1%
4,CC(C)Oc1ccc(F)cc1-c1cc(C(=O)Nc2ccc(C(C)(C)C)cc2)[nH]n1,inconclusive: 53%
5,CCN(CC)CCCNC(=O)CSc1c2c(nc3cc(Cl)ccc13)CCCC2,inactive: -21.6%
6,COc1cccc(OCC(O)CN2CCN(CCN3C(=O)c4cccc5cccc(c45)C3=O)CC2)c1 (centres undefined),inactive: 1.12%
7,COc1ccc(CCn2c(=N)c(C(=O)NCC3CCCO3)cc3c(=O)n4cccc(C)c4nc32)cc1 (centres undefined),inactive: -27.9%
8,CC1(C(=O)NCC2CC2)Cc2c(-c3cccc(C(F)(F)F)c3)ccnc2O1 (centres undefined),inactive: 30.1%
9,COc1cc2c(cc1OC)C(C)N(C(=O)Nc1cc(C)cc(C)c1)CC2 (centres undefined),inconclusive: 51.3%
10,COc1ccc(-c2nc(C(N)=O)c3[nH]c(=O)n(-c4cccc(Cl)c4)c3n2)cc1OC,inactive: 20.6%
11,COC(=O)CC1COc2ccccc2N1S(=O)(=O)c1ccc(OC)cc1 (centres undefined),inconclusive: 46.6%
12,CC1(C(=O)NCc2ccco2)Cc2c(-c3cccc(C(F)(F)F)c3)ccnc2O1 (centres undefined),inconclusive: 42.3%
13,COc1cc(NC(=O)N2CCc3nc(NCc4cccc(Oc5ccccc5)c4)ncc3C2)cc(OC)c1OC,inconclusive: 30.6%
14,Cc1[nH]nc2c1C(c1ccc(-c3ccc(Cl)cc3)o1)C(C#N)=C(N)O2 (centres undefined),inconclusive: 33.9%
15,COc1ccc(C2=NOC(C(=O)NCc3ccc(F)cc3)C2)cc1 (centres undefined),inconclusive: 63.2%
16,CN(C)CCNC(=O)c1cccc2nc3c(ccc4ccccc43)nc12,inactive: 34.8%
17,Cc1ccc(COc2ccccc2-c2cc(C(=O)N/N=C/c3cccnc3)[nH]n2)cc1,inconclusive: 42.4%
18,Cc1ccc(C(=O)CSc2nn3c(=O)c(C(C)(C)C)nnc3s2)cc1,inactive: 23.5%
19,Oc1cc(NCc2ccc(Cl)cc2)cc2cccnc12,inactive: -33.2%
20,O=C(Cn1cnc2c(NCc3ccccc3)ncnc21)NCc1ccccc1,inactive: 38.4%
21,COc1ccc(C(=O)NCCN(C)C)c2nc3ccccc3cc12,inactive: 34%
22,COc1ccc(NS(=O)(=O)c2cc(C)ccc2NC(=O)c2cc(C)oc2C)cc1,inconclusive: 50%
23,Cc1ccc(OCCNC(=O)C(=O)NCc2ccco2)cc1,inconclusive: 65.2%
24,COc1ccc2nc(-c3ccco3)c(-c3ccco3)nc2c1,inconclusive: 23.8%
25,N=c1c(C(=O)NCc2ccco2)cc2c(=O)n3ccccc3nc2n1CCc1ccccc1,inactive: -10%
26,COC(=O)c1cn(C(=O)c2ccc(OC)cc2)c2ccccc12,inconclusive: 32.7%
27,O=C(N/N=C/C(Br)=C/c1ccccc1)c1cc(-c2ccco2)[nH]n1,inactive: 31.3%
